Results are given in words; binding and its absence hold for the method and conditions named. In cells and extracts the contact can be indirect. A result given as binding can be weak or reduced; the word gives no strength.
Target: GST-tagged IL13Rα1 (human) (UniProt P78552)
Experiment: pull-down; GST-IL13Rα1 on Glutathione-Sepharose 4B beads incubated with LNCaP whole cell lysate at 4 °C overnight; immunoblot with anti-HK2; only the target purified

Protein sequences, listed by entry. Tags and fused reporters are not part of them. Lines headed by an entry give the natural chain unless they say otherwise; changes in a name come on top.
UniProt P78552: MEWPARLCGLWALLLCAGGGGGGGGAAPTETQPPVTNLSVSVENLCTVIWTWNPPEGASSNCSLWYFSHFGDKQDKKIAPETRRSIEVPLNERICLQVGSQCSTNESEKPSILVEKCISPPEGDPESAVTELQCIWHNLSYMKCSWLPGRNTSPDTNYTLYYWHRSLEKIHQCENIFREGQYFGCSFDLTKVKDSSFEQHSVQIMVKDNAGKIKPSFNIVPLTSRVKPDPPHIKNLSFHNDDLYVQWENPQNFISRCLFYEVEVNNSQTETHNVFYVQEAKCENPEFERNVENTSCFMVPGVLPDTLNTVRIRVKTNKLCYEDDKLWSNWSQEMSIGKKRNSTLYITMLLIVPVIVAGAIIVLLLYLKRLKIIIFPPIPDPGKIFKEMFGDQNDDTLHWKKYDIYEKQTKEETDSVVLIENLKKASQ

B1: hexokinase 2 (endogenous, LNCaP) (enzyme, UniProt P52789 1-917)
chain: MIASHLLAYFFTELNHDQVQKVDQYLYHMRLSDETLLEISKRFRKEMEKGLGATTHPTAAVKMLPTFVRSTPDGTEHGEFLALDLGGTNFRVLWVKVTDNGLQKVEMENQIYAIPEDIMRGSGTQLFDHIAECLANFMDKLQIKDKKLPLGFTFSFPCHQTKLDESFLVSWTKGFKSSGVEGRDVVALIRKAIQRRGDFDIDIVAVVNDTVGTMMTCGYDDHNCEIGLIVGTGSNACYMEEMRHIDMVEGDEGRMCINMEWGAFGDDGSLNDIRTEFDQEIDMGSLNPGKQLFEKMISGMYMGELVRLILVKMAKEELLFGGKLSPELLNTGRFETKDISDIEGEKDGIRKAREVLMRLGLDPTQEDCVATHRICQIVSTRSASLCAATLAAVLQRIKENKGEERLRSTIGVDGSVYKKHPHFAKRLHKTVRRLVPGCDVRFLRSEDGSGKGAAMVTAVAYRLADQHRARQKTLEHLQLSHDQLLEVKRRMKVEMERGLSKETHASAPVKMLPTYVCATPDGTEKGDFLALDLGGTNFRVLLVRVRNGKWGGVEMHNKIYAIPQEVMHGTGDELFDHIVQCIADFLEYMGMKGVSLPLGFTFSFPCQQNSLDESILLKWTKGFKASGCEGEDVVTLLKEAIHRREEFDLDVVAVVNDTVGTMMTCGFEDPHCEVGLIVGTGSNACYMEEMRNVELVEGEEGRMCVNMEWGAFGDNGCLDDFRTEFDVAVDELSLNPGKQRFEKMISGMYLGEIVRNILIDFTKRGLLFRGRISERLKTRGIFETKFLSQIESDCLALLQVRAILQHLGLESTCDDSIIVKEVCTVVARRAAQLCGAGMAAVVDRIRENRGLDALKVTVGVDGTLYKLHPHFAKVMHETVKDLAPKCDVSFLQSEDGSGKGAALITAVACRIREAGQR
  binding: binds

From publication PMC9334759
